We go through four substances from doi:10.1101/2022.06.13.495990.

The chains behind the UniProt entries cited, without tags or fusion partners.
UniProt P70297: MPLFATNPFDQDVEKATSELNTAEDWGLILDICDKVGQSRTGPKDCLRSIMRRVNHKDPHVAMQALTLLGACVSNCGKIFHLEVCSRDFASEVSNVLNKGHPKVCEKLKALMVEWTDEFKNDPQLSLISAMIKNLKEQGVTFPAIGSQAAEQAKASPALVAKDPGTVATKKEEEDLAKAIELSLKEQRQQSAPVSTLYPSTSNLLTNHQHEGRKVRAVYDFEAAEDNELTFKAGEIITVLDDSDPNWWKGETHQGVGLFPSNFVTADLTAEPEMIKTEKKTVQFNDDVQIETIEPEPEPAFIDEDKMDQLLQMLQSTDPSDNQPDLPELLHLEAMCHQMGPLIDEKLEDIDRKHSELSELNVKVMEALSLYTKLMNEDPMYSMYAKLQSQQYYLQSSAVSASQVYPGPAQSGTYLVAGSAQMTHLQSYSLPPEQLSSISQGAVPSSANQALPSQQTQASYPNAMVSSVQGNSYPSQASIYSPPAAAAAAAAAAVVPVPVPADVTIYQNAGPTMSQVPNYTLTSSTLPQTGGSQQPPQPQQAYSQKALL
UniProt Q0V8S0: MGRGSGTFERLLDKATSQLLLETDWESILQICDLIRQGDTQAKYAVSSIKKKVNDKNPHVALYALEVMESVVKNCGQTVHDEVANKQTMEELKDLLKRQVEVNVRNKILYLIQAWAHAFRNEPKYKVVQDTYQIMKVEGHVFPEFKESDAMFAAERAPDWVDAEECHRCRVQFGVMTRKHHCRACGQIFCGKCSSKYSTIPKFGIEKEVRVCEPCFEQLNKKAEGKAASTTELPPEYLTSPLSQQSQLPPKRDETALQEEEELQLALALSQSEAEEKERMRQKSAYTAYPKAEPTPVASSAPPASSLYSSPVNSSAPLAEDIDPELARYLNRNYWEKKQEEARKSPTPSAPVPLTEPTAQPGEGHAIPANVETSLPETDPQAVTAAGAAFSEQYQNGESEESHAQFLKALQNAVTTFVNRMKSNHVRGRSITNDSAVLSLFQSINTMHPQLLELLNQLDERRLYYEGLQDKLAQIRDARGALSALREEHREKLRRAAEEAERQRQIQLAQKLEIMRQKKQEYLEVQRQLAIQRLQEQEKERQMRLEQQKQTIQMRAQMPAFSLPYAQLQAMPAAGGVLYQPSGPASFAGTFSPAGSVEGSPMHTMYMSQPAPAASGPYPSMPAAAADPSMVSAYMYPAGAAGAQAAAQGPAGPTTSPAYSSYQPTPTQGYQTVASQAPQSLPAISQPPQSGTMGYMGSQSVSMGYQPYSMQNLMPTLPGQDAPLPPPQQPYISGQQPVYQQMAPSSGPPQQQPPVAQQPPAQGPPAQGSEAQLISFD
UniProt Q99LI8: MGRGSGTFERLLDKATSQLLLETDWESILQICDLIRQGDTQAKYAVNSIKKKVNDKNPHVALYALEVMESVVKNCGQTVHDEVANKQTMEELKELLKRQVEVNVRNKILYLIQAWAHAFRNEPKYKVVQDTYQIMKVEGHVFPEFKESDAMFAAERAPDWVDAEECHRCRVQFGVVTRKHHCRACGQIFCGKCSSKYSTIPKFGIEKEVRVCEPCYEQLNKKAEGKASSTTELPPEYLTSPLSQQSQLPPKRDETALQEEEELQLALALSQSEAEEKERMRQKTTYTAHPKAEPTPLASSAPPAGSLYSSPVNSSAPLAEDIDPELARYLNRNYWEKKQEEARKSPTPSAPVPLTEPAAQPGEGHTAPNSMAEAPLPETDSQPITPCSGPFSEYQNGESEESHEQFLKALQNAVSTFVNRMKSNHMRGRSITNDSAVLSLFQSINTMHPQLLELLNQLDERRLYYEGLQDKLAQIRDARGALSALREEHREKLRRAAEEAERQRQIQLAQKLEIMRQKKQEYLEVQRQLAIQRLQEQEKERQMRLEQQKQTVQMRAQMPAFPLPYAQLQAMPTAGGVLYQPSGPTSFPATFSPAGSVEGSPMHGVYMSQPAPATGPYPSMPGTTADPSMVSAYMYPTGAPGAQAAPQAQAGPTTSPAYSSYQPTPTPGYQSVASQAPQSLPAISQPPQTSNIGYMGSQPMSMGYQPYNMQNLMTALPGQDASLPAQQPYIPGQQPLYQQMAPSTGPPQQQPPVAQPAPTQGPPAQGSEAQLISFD

Experiment in all cases: affinity purification with mass spectrometry
The target in test [1] is T1, GST-tagged mouse CFAP418 C-terminal bait (169-209 aa) (mouse) (UniProt Q3UJP5).
T1 sequence: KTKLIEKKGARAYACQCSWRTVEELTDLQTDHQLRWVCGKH

The target of test [2] is T2, GST-tagged mouse CFAP418 full-length (mouse) (UniProt Q3UJP5).
T2 sequence: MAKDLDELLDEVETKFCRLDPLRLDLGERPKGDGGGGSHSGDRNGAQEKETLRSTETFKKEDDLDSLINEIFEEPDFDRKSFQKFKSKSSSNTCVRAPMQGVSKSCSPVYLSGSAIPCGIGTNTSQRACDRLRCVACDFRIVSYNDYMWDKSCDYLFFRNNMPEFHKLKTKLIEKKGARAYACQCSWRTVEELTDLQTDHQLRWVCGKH

Test [3] deals with T3, Cilia- and Flagella-Associated Protein 418 (CFAP418), endogenous in mouse retina (mouse (endogenous in mouse retina)) (UniProt Q3UJP5).
T3 sequence: T2 sequence

No constants are given. Whether binding was seen depends on the method and setting. Binding seen in cells or lysates may run through a third protein. These calls come from enrichment with a bait or labelling near it, and not all partners need be listed. A no says only that the protein was not detected with the bait. Tags and fused reporters may be left off the sequences shown.

As to STAM, endogenous in bovine retina, the binding result in test [1] and in test [2] was “no binding” throughout.

“STAM (signal transducing adaptor molecule), endogenous in mouse retina (from UniProt P70297 1-548)”: the binding entry in test [3] was “no binding”.

For “HGS, endogenous in bovine retina (from UniProt Q0V8S0 1-777)”, the binding entry in test [1] and in test [2] was “no binding” throughout.

For the substance “HGS (hepatocyte growth factor-regulated tyrosine kinase substrate), endogenous in mouse retina (from UniProt Q99LI8 1-775)”, in test [3], the binding entry is “no binding”.
